Amino acid sequences for entries named in this document (tags omitted). A change or cut given only in a name is not applied to a line headed by its entry. Chains listed by the source or under a name are the forms on record and can include a tag or linker.
Halo-TMEM55B (Q86T03, form named): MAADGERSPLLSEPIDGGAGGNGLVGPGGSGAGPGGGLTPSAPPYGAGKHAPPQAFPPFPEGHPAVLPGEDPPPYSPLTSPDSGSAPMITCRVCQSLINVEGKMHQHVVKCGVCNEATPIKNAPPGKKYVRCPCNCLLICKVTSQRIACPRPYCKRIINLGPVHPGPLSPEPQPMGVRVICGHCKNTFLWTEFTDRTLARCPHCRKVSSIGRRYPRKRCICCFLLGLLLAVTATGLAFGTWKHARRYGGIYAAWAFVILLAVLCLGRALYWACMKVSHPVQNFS
Halo-TMEM55B R151E (Q86T03, form named): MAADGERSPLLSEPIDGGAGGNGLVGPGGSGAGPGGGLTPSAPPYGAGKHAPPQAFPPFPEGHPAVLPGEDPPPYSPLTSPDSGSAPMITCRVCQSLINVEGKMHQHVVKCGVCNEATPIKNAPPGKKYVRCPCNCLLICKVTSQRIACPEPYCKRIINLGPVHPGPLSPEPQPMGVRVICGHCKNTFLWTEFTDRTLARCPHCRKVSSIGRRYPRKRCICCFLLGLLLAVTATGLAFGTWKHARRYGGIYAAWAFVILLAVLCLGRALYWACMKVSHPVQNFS

In article doi:10.1101/2025.08.19.670962, “Structural basis for binding of RILPL1 to TMEM55B reveals a lysosomal platform for adaptor assembly through a conserved TBM motif” (bioRxiv, 2025):

B1: PDZD8 (protein, UniProt Q8NEN9 1-1154)
chain: MGLLLMILASAVLGSFLTLLAQFFLLYRRQPEPPADEAARAGEGFRYIKPVPGLLLREYLYGGGRDEEPSGAAPEGGATPTAAPETPAPPTRETCYFLNATILFLFRELRDTALTRRWVTKKIKVEFEELLQTKTAGRLLEGLSLRDVFLGETVPFIKTIRLVRPVVPSATGEPDGPEGEALPAACPEELAFEAEVEYNGGFHLAIDVDLVFGKSAYLFVKLSRVVGRLRLVFTRVPFTHWFFSFVEDPLIDFEVRSQFEGRPMPQLTSIIVNQLKKIIKRKHTLPNYKIRFKPFFPYQTLQGFEEDEEHIHIQQWALTEGRLKVTLLECSRLLIFGSYDREANVHCTLELSSSVWEEKQRSSIKTVELIKGNLQSVGLTLRLVQSTDGYAGHVIIETVAPNSPAAIADLQRGDRLIAIGGVKITSTLQVLKLIKQAGDRVLVYYERPVGQSNQGAVLQDNFGQLEENFLSSSCQSGYEEEAAGLTVDTESRELDSEFEDLASDVRAQNEFKDEAQSLSHSPKRVPTTLSIKPLGAISPVLNRKLAVGSHPLPPKIQSKDGNKPPPLKTSEITDPAQVSKPTQGSAFKPPVPPRPQAKVPLPSADAPNQAEPDVLVEKPEKVVPPPLVDKSAEKQAKNVDAIDDAAAPKQFLAKQEVAKDVTSETSCPTKDSSDDRQTWESSEILYRNKLGKWTRTRASCLFDIEACHRYLNIALWCRDPFKLGGLICLGHVSLKLEDVALGCLATSNTEYLSKLRLEAPSPKAIVTRTALRNLSMQKGFNDKFCYGDITIHFKYLKEGESDHHVVTNVEKEKEPHLVEEVSVLPKEEQFVGQMGLTENKHSFQDTQFQNPTWCDYCKKKVWTKAASQCMFCAYVCHKKCQEKCLAETSVCGATDRRIDRTLKNLRLEGQETLLGLPPRVDAEASKSVNKTTGLTRHIINTSSRLLNLRQVSKTRLSEPGTDLVEPSPKHTPNTSDNEGSDTEVCGPNSPSKRGNSTGIKLVRKEGGLDDSVFIAVKEIGRDLYRGLPTEERIQKLEFMLDKLQNEIDQELEHNNSLVREEKETTDTRKKSLLSAALAKSGERLQALTLLMIHYRAGIEDIETLESLSLDQHSKKISKYTDDTEEDLDNEISQLIDSQPFSSISDDLFGPSESV
B2: SMAC (protein, UniProt Q9NR28 22-239)
chain: LCVPVVANFKKRCFSELIRPWHKTVTIGFGVTLCAVPIAQKSEPHSLSSEALMRRAVSLVTDSTSTFLSQTTYALIEAITEYTKAVYTLTSLYRQYTSLLGKMNSEEEDEVWQVIIGARAEMTSKHQEYLKLETTWMTAVGLSEMAAEAAYQTGADQASITARNHIQLVKLQVEEVHQLSRKAETKLAEAQIEELRQKTQEEGEERAESEQEAYLRED

Legend:
Halo-TMEM55B = Halo-TMEM55B (UniProt Q86T03); experiment: affinity purification with mass spectrometry; Halo-TMEM55B WT or R151E on HaloLink resin from transfected cells with Rab8A Q67L and LRRK2 Y1699C (or Y1699C D2017A); DIA-MS
Halo-TMEM55B R151E = Halo-TMEM55B R151E (UniProt Q86T03); experiment: as above

| Binder | binding (Halo-TMEM55B) | binding (Halo-TMEM55B R151E) |
| --- | --- | --- |
| B1 | binds | no binding |
| B2 | binds | no binding |

Results are given in words; binding and its absence hold for the method and conditions named. Binding seen in cells or lysates may run through a third protein. Here binding means that the protein was enriched with, or labelled near, the bait; the list need not be complete. For some of these results: No binding means not detected with the bait.
